# In PubChem BioAssay AID1671190 (National Center for Advancing Translational Sciences (NCATS), 2021):
# By UniProt entry, the sequences of proteins in these tests, tags left out. Where a name states a change or a piece, a line headed by the entry shows the natural chain unless it says otherwise.
# UniProt P18054: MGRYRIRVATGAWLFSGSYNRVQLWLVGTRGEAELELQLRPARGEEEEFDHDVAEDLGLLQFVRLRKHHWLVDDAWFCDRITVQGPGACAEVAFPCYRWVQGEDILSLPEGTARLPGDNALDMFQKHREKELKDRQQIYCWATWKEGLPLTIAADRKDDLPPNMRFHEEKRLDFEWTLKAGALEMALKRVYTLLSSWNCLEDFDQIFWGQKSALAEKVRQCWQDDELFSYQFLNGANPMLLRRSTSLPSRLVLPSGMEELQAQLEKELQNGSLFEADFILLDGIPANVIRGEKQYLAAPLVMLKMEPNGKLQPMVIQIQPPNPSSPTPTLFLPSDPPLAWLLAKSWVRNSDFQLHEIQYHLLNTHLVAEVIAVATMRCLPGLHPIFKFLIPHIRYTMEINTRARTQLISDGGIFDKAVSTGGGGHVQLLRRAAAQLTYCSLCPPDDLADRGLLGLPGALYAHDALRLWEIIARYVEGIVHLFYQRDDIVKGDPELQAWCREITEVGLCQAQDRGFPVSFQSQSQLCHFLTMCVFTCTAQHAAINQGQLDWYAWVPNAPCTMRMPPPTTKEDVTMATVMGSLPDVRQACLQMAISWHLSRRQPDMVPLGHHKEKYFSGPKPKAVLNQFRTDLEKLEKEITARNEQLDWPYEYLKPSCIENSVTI
# Where “and” joins values, the source holds several entries; their conditions need not be identical. Identical values can stand only once. The whole screen tested about 580,000 compounds, of which about 6,100 (1.1%) were called active. This list was built around the results that the source calls inconclusive (neither active nor inactive); the mix of calls is not that of the screen. The call rests on the fitted dose curve; in most records, active means well fitted inhibition curve with a large enough effect; inconclusive means small, poorly fitted or top-dose-only effect, or another doubt; inactive means no such curve, though single readings can be large or run the other way. Potencies of inconclusive entries are doubtful fits and often do not repeat.
# Molecular target: Polyunsaturated fatty acid lipoxygenase ALOX12 (Homo sapiens) (UniProt P18054)
# Experiment: Primary qHTS assay for inhibitors of human arachidonate 12S-lipoxygenase (ALOX12): Round 2
# Conditions: purified 12hLO, xylenol orange hydroperoxide absorbance; activity change, negative = inhibition: at 108 µM (top of the series)
# Outline: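 Hydroperoxide product was detected by ferrous iron/xylenol orange as the 573 to 405 nm absorbance ratio. Arachidonic acid at 40 uM (final) was turned over for 30 min at room temperature by 150 nM human 12hLO, pH 7.0 Hepes buffer, after 15 min compound preincubation.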
# On the % scale 0 is the no-effect control and ±100 the full control effect; potency means the concentration at half of the fitted maximal effect.
Structure (SMILES),Potency,"activity change, negative = inhibition"
O=C1Nc2ccccc2CN(Cc2ccncc2)C12CCNCC2,"inconclusive: 7.08 µM [inhibitor, full curve]",–
CCOc1ccc(/C=C(\C)[N+](=O)[O-])cc1,"inconclusive: 28.2 µM [inhibitor, partial curve, poor fit]",–
COc1cc(/C=C2\C(=O)NC(=O)N(CCc3ccc(F)cc3)C2=O)ccc1O,"inconclusive: 44.7 µM [inhibitor, partial curve, poor fit]",–
Cc1ccc(-n2nc(C)c3c2NC(=O)CSC3c2ccc3c(c2)OCO3)cc1 (stereo unspecified),"inconclusive: 31.6 µM [inhibitor, partial curve, poor fit]",–
Cc1ncc2c(n1)C[C@@H]1CC[C@H]2N1C(=O)Cc1cccc(F)c1,–,inactive: 7.12%
CCC1C(c2ccccc2)NC(c2ccccc2)CC1(O)c1ccc(F)cc1 (stereo unspecified),inactive,–
N#CC1(c2ccccc2)CCN(C(=O)c2ccc3nccn3c2)CC1,–,inactive: 74.3%
Cc1c(C(c2ccc(F)cc2)c2c(O)c3ccccc3oc2=O)c(=O)n(-c2ccccc2)n1C (stereo unspecified),"inconclusive: 50.1 µM [inhibitor, partial curve, poor fit]",–
Cc1cccc2c1N(N=O)CCC2,"inconclusive: 0.562 µM [inhibitor, full curve, poor fit]",–
N/C(=N\N=C/c1ccc(-c2ccc(O)c(C(=O)O)c2)o1)N[N+](=O)[O-],"inconclusive: 2.51 µM [inhibitor, full curve, poor fit]",–
Fc1ccc(C[n+]2c(-c3ccccc3)cc(-c3ccccc3)cc2-c2ccccc2)cc1,–,inactive: -4.57%
NCCc1c[nH]c2ccc(C(N)=O)cc12,"inconclusive: 39.8 µM [inhibitor, partial curve, poor fit]",–
COC(=O)CSC1=NP(=S)(SCC(=O)OC)N2CCCC2=C1C#N (stereo unspecified),–,inactive: 0%
COc1cc2c(cc1CCc1ccccc1)N(C(=O)c1ccc3[nH]ccc3c1)CC21CCN(C(C)=O)CC1,"inconclusive: 39.8 µM [inhibitor, full curve, poor fit]",–
COc1ccc(C(=O)C2CN(C)CC2c2ccc(Cl)cc2)cc1 (stereo unspecified),"inconclusive: 100 µM [inhibitor, single point]",–
COc1cc(C)c(CN2CCN(c3ccccc3)CC2)cc1C,"inconclusive: 1.41 µM [inhibitor, full curve]",–
Cc1cc(O)c(CN2CC=C(c3ccccc3)CC2)cc1C(C)C,–,inactive: -10.2%
COc1ccccc1CN1CCCCC1c1cccnc1 (stereo unspecified),"inconclusive: 8.91 µM [inhibitor, partial curve, poor fit]",–
COc1ccc(-n2c(CNCCc3ccc(C)cc3)nc3ccccc3c2=O)cc1,"inconclusive: 50.1 µM [inhibitor, partial curve, poor fit]",–
CCOC(=O)c1c(-n2c(C)cc(C=C3C(=O)NC(=O)NC3=O)c2C)sc2c1CCCC2,–,inactive: -20%
Cc1cccc(N2C(=O)NC(=O)/C(=C\c3cc(C)n(-c4sc5c(c4C#N)CCCC5)c3C)C2=O)c1C,"inconclusive: 44.7 µM [inhibitor, partial curve]",–
COc1cc2occc2c2oc(=O)ccc12,"inconclusive: 100 µM [inhibitor, single point]",–

Structure (SMILES),Potency,"activity change, negative = inhibition"
ClC1=C(Cl)[C@]2(Cl)[C@@H]3[C@@H](Cl)[C@H]4O[C@H]4[C@@H]3C1(Cl)C2(Cl)Cl,–,inactive: 1.38%
O=[N+]([O-])c1cccc(CN2CCN(Cc3ccc(Br)cc3)CC2)c1,"inconclusive: 3.55 µM [inhibitor, full curve, poor fit]",–
COc1ccccc1CCNCc1cc2c(cc1[N+](=O)[O-])OCO2,"inconclusive: 1.58 µM [inhibitor, full curve, poor fit]",–
COC(=O)c1c(C)n(Cc2ccccc2)c2ccc(O)cc12,"inconclusive: 44.7 µM [inhibitor, partial curve] and active: 15.8 µM",–
Cc1cccc(NC(=O)CCl)c1,"inconclusive: 44.7 µM [inhibitor, partial curve, poor fit]",–
O=C1c2ccccc2-n2nnc(-c3ccccc3)c2C2c3ccccc3CCN12 (stereo unspecified),"inconclusive: 44.7 µM [inhibitor, partial curve, poor fit]",–
Cc1ccc([N+](=O)[O-])[c]2c1[O][Hg]2,active: 0.051 µM,–
CCC(CC)C(=O)NC[C@H]1C[C@@H]2CCN1C[C@@H]2c1cc(-c2ccco2)nc(C)n1,–,inactive: 38.9% [at 176 µM]
CCN1CCN(CC(c2ccccc2)c2ccccc2)CC1,"inconclusive: 14.1 µM [inhibitor, full curve]",–
c1ccc2c(CCN3CCCCC3)c[nH]c2c1,–,inactive: 0.622%
COc1c(C=C2C(=O)NC(=O)NC2=O)c(CCN(C)C(=O)c2ccccc2)cc2c1OCO2,"inconclusive: 112 µM [inhibitor, single point]",–
CC(C)CNC(=O)c1c(N)n(Cc2ccco2)c2nc3ccccc3nc12,"inconclusive: 44.7 µM [inhibitor, partial curve, poor fit]",–
Cc1ccc(NC(=O)c2cn(C)c3ccccc23)cc1,–,inactive: -12.8%
CC(C)NC(=O)NC[C@H]1C[C@@H]2CCN1C[C@@H]2c1cc(C2CCCCC2)nn1C,–,inactive: 28.2% [at 176 µM]
CCOC(=O)[C@@]1(C#N)C(c2ccc(Cl)c(Cl)c2)[C@H](C(N)=O)N2C=C(C(C)=O)C=C[C@H]21 (stereo partly specified),"inconclusive: 31.6 µM [inhibitor, single point]",–
Fc1ccc(CNCCc2c[nH]c3ccccc23)cc1,–,inactive: 0%
Cn1c(O)c(/C=C2/C=CC=N2)c(=O)[nH]c1=O,"inconclusive: 100 µM [inhibitor, single point]",–
CC(=O)N1CC(=O)Nc2ccc(F)cc2C1c1ccccc1 (stereo unspecified),"inactive and inconclusive: 126 µM [inhibitor, partial curve, poor fit]",–
CC(=O)Nc1ccc(S(=O)(=O)NC[C@H]2C[C@@H]3CCN2C[C@@H]3c2cc(C3CCCC3)nn2C)cc1,–,inactive: 34.6%
CCCc1nc2ccccc2c(=O)n1-c1ccc(OC)cc1,–,inactive: -3.12%
Cc1ccc(/C=C2\C(=O)NC(=O)N(CC3CCCO3)C2=O)s1 (stereo unspecified),"inconclusive: 89.1 µM [inhibitor, partial curve, poor fit]",–
C(#CCN1CCOCC1)COCc1ccccc1,"inconclusive: 70.8 µM [inhibitor, partial curve, poor fit]",–

Structure (SMILES),Potency,"activity change, negative = inhibition"
COc1ccccc1CNC(=O)[C@H]1CN2CC[C@H]1C[C@@H]2Cn1cc(-c2ccccc2)nn1,–,inactive: 6.36% [at 176 µM]
O=c1oc2ccccc2c(O)c1C(c1ccc([N+](=O)[O-])cc1)c1c(O)c2ccccc2oc1=O,active: 7.94 µM,–
C[Se]C[C@@H](N)C(=O)O,"inconclusive: 39.8 µM [inhibitor, partial curve, poor fit]",–
CCCCCCCCC(=O)NCc1ccc(O)c(OC)c1,inactive,–
O=S1(=O)N(CCN2CC=C(c3c[nH]c4cc(F)ccc34)CC2)c2cccc3c2N1CCC3,"inconclusive: 50.1 µM [inhibitor, partial curve, poor fit]",–
CCC(C)N=Cc1c(O)n(-c2ccccc2)c(=O)[nH]c1=O (stereo unspecified),"inconclusive: 39.8 µM [inhibitor, partial curve]",–
COC(=O)C1=C(c2ccc(F)cc2OCc2ccccc2)C[C@@H]2CC[C@H]1N2C(=O)NCc1ccc2c(c1)OCO2,"inconclusive: 89.1 µM [inhibitor, single point]",–
N#CC(C#N)=Cc1ccc([N+](=O)[O-])c(O)c1,"inactive and inconclusive: 126 µM [inhibitor, partial curve, poor fit]",–
COc1cc(C(=O)Nc2ccc(Br)cc2C(=O)c2ccccc2Cl)cc(OC)c1OC,–,inactive: 16.9%
CC1=CC(C)CC(C)OC(=O)CC(c2ccc(O)cc2)NC(=O)C(Cc2c(Br)[nH]c3ccccc23)N(C)C(=O)C(C)NC(=O)C(C)C1 (stereo unspecified),–,inactive: 6.87%
CCC(C)n1c(O)c(/C=N/Nc2ccccc2)c(=O)[nH]c1=S (stereo unspecified),"inconclusive: 56.2 µM [inhibitor, partial curve, poor fit]",–
O=C(CCCN1CCC2(CC1)C(=O)N(Cc1cccc(F)c1)CN2c1ccccc1)c1ccc(F)cc1,"inconclusive: 141 µM [inhibitor, single point]",–
Cc1nc(-c2ccccc2)cc([C@H]2CN3CC[C@H]2C[C@@H]3CN(Cc2ccco2)Cc2ccco2)n1,–,inactive: 57.3%
O=C1C=C(N2CC2)c2ccccc2C1=O,"inconclusive: 44.7 µM [inhibitor, partial curve, poor fit]",–
O=C(CF)N(O)c1ccc(C=Cc2ccccc2)cc1,–,inactive: -2.92%
c1ccc(CCN2CCC3CCNC3C2)cc1 (stereo unspecified),"inconclusive: 28.2 µM [inhibitor, partial curve, poor fit]",–
Cc1cc(C(F)(F)F)nn1CC(=O)N1[C@H]2CC[C@@H]1c1cnc(-c3ccc(F)cc3)nc1C2,"inconclusive: 8.91 µM [inhibitor, partial curve, poor fit]",–
N#Cc1cccc(NC(=O)NC[C@H]2C[C@@H]3CCN2C[C@@H]3CN2CCN(c3ccccc3)CC2)c1,–,inactive: 4.65%
CN1C(=O)N(C)C(=O)C(CCc2ccncc2)(Cc2ccc3c(c2)OCO3)C1=O,–,inactive: 2.2%
CCC1(N2CCN(C(=O)COc3cccc(Cl)c3)CC2)CCN(S(C)(=O)=O)C1 (stereo unspecified),"inconclusive: 11.2 µM [inhibitor, partial curve]",–
CN1CCCC2c3ccccc3CCC21 (stereo unspecified),"inconclusive: 2.24 µM [inhibitor, partial curve, poor fit]",–
O=C(C[N+]12CCC(CC1)C(OC(=O)c1ccccc1)C2)c1ccc([N+](=O)[O-])cc1 (stereo unspecified),"inconclusive: 112 µM [inhibitor, single point]",–
